{"source": "ChEMBL document CHEMBL1133989", "about": "“Which aminoglycoside ring is most important for binding? A hydropathic analysis of gentamicin, paromomycin, and analogues” (Bioorg Med Chem Lett, 2001)", "test_system": "Ribosomal RNA A-site", "experiment": "Binding affinity of aminoglycoside to 16S ribosomal RNA A-site in Escherichia coli", "assay_type": "nucleic-acid assay", "data": [{"smiles": "CNC1C(O)C(OC2C(N)CC(N)C(OC3OC(CN)CCC3N)C2O)OCC1(C)O", "note": "(stereo unspecified) [GENTAMICIN C1A]", "values": [{"measurement": "Kd", "result": 1700, "unit": "nM"}]}]}
